Taken from: PubChem BioAssay AID686937 (Drosophila RNAi Screening Center, 2013)

- Aim: 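Genes in the fly needed for secretion of protein constitutively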 (primary screen)
- Cells: Drosophila S2 cells expressing secreted horseradish peroxidase
- Reagent: long dsRNA against Drosophila genes
- Timing: about 5.5 days (5 days dsRNA, then 12 h reporter induction)
- Conditions: reporter expression induced after 5 days of dsRNA, read 12 h later; inducer not stated
- Detection: 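Chemiluminescent measurement of peroxidase in the medium 12 h after reporter induction, following 5 days of dsRNA, given as a z-score per plate; higher means more secretion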
- Reading the numbers: z-score: higher = more reporter secreted into medium
The deposit covers about 23,000 reagents; this is a random part of those that have a named target and a result. 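Reduced-secretion tags in replicate 1 do not always agree with the z-scores; no criterion for assigning the tags was given.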 Reagents against one gene are numbered here. Not stated in the record: the amount of reagent.

| gene | reagent | z-score, replicate 1 | z-score, replicate 2 | z-score, replicate 3 | z-score, replicate 4 | phenotype, replicate 1 |
| --- | --- | --- | --- | --- | --- | --- |
| miple1 | 1 | 0.56 | 0.38 | – | – | – |
| CG17807 | 1 | 0.22 | 0.23 | – | – | – |
| sp3 | 1 | 0.34 | 0.32 | – | – | – |
| lncRNA:CR32690 | 1 | 0 | -0.01 | – | – | – |
| Septin5 | 1 | 0.27 | 0.1 | – | – | – |
| Dysb | 1 | 0.37 | -0.05 | – | – | – |
| RpS21 | 1 | -0.04 | 0.82 | – | – | reduced secretion |
| CG15109 | 1 | -0.25 | 0.28 | – | – | – |
| CG32071 | 1 | -1.17 | -0.18 | – | – | – |
| CG14607 | 1 | 0.33 | 0.48 | – | – | – |
| polybromo | 1 | -0.25 | -0.08 | – | – | – |
| ksr | 1 | -0.48 | -0.74 | – | – | – |
| IP3K2 | 1 | -0.06 | 0.39 | 0.49 | 0.2 | – |
| IP3K2 | 2 | 0.38 | 0.36 | – | – | – |
| IP3K2 | 3 | 0.29 | -0.41 | – | – | – |
| Kua | 1 | 0.29 | 0.19 | – | – | – |
| CG16978 | 1 | -0.21 | 0.39 | – | – | – |
| CtsL3 | 1 | 0.34 | 0.35 | – | – | – |
| Deaf1 | 1 | 0.48 | 0.53 | 0.31 | 0.53 | – |
| Deaf1 | 2 | 1.08 | 1.31 | – | – | – |
| Gnpat | 1 | 0.48 | 0.27 | – | – | – |
| CG6420 | 1 | 0.48 | 0.14 | – | – | – |
| CG31199 | 1 | 0.27 | 0.4 | – | – | – |
| IntS1 | 1 | 1.04 | 0.73 | – | – | – |
| Phm | 1 | 0.22 | 0.27 | – | – | – |
| CG10068 | 1 | 0.02 | -0.07 | – | – | – |
| Atg18b | 1 | 0.17 | 0.01 | – | – | – |
| sds22 | 1 | 0.01 | 0.47 | – | – | – |
| Or88a | 1 | 0.26 | 0.69 | – | – | – |
| Art4 | 1 | 0.21 | 0.48 | – | – | – |
| CG43109 | 1 | 0.34 | 0.29 | – | – | – |
| Mcr | 1 | 0.4 | 0.2 | – | – | – |
| MICAL-like | 1 | 0.32 | 0.04 | – | – | – |
| CG13088 | 1 | 0.06 | 0.23 | – | – | – |
| agt | 1 | 0.19 | 0.16 | – | – | – |
| CG5112 | 1 | 0.34 | 0.39 | – | – | – |
| Dh44-R2 | 1 | 0.18 | 0.22 | – | – | – |
| Dh44-R2 | 2 | 0.4 | 0.41 | – | – | – |
| CG12581 | 1 | 0.11 | 0.23 | – | – | – |
| CG12581 | 2 | 0.21 | 0.42 | – | – | – |
| CR42545 | 1 | 0.11 | 0.51 | – | – | – |
| CG13607 | 1 | 0.47 | 0.5 | – | – | – |
| Blos3 | 1 | -1.75 | 0.37 | – | – | – |
| Syx6 | 1 | 0.27 | 0.21 | – | – | – |
| spict | 1 | 0.21 | 0.35 | – | – | – |
| CG8243 | 1 | 0.35 | 0.53 | – | – | – |
| CG8243 | 2 | -0.44 | -0.17 | – | – | – |
| Shaw | 1 | 0.01 | 0.14 | – | – | – |
| Shaw | 2 | 0.62 | 0.25 | 0.04 | 0.43 | – |
| Shaw | 3 | 1.33 | -0.44 | – | – | – |
| Jhbp3 | 1 | -3.69 | -0.22 | – | – | reduced secretion |
| CG4318 | 1 | 0.34 | 0.16 | – | – | – |
| Cpr31A | 1 | -0.47 | -0.27 | – | – | – |
| Oseg4 | 1 | 0.12 | 0.54 | – | – | – |
| r-cup | 1 | 0.26 | 0.14 | – | – | – |
| CG31068 | 1 | 0.06 | -0.01 | – | – | – |
